Laboratory results published in article PMC11317515.
Residue numbers refer to the chain shown, from its start. These are yes or no findings as the source states them, for the method shown. Binding seen in cells or lysates may run through a third protein. Some results given as binding are weak or reduced against the parent protein; the word gives no strength. For some assays here: Where a sequence is shown, tags or fusion partners need not be part of it. Values belong to the molecule of their own block, whether it stands above or below them.

Amino acid sequences for entries named in this document (tags omitted).
UniProt P02566: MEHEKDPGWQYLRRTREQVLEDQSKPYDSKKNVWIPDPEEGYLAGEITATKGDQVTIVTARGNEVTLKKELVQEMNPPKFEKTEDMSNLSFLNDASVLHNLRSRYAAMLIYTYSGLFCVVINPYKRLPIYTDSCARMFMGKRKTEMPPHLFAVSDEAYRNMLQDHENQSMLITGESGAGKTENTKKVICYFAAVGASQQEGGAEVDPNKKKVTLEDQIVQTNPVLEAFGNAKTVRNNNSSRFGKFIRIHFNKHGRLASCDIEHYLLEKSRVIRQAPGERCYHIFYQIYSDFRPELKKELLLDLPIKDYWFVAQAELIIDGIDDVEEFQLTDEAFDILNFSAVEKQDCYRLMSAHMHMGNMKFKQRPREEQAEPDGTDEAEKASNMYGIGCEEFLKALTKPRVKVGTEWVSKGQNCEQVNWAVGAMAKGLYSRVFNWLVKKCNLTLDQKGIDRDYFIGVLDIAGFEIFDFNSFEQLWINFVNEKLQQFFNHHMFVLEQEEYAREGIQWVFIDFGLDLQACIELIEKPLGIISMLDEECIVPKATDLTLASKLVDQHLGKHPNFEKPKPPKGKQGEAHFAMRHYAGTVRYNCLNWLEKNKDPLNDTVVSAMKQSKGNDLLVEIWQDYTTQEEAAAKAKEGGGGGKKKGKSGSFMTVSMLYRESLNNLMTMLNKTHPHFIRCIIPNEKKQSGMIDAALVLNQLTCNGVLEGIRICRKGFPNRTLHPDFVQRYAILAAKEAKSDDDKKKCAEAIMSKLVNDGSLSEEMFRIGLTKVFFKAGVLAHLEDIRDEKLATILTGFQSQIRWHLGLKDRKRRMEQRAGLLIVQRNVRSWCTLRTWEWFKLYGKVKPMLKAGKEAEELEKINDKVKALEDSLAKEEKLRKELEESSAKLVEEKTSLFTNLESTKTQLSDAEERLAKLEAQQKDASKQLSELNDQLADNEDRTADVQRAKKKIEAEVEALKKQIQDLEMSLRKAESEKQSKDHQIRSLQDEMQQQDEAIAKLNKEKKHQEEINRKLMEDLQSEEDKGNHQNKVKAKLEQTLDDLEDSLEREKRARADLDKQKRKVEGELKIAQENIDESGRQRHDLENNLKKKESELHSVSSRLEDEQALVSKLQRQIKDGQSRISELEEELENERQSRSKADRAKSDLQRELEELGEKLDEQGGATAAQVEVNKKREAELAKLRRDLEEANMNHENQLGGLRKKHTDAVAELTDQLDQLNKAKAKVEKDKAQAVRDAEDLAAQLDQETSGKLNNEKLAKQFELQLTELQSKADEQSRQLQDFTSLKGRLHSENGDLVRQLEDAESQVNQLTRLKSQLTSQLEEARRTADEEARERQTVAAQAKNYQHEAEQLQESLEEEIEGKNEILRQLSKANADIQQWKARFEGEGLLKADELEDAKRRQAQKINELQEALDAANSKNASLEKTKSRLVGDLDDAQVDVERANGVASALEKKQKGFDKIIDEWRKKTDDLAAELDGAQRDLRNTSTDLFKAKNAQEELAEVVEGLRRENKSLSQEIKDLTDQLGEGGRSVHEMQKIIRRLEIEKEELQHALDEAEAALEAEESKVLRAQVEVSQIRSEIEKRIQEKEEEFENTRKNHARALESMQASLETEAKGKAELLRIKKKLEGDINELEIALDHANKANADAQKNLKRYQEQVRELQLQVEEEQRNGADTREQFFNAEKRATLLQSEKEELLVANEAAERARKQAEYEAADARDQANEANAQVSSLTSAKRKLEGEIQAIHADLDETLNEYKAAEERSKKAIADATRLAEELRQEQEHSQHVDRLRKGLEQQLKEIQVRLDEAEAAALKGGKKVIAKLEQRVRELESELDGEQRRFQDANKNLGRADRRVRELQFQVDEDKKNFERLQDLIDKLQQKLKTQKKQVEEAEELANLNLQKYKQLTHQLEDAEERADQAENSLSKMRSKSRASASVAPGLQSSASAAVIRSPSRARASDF

Key:
[1] = target: T1, FLAG-NHL-1 (C. elegans) (UniProt Q03601); experiment: co-IP; anti-FLAG (M2) and Dynabeads Protein A from lysates (NP40 lysis buffer, diluted in PBS with 0.02% Tween-20, 4 °C) of transgenic worms with FLAG-NHL-1 and HA-F40A3.6 in wild-type or unc-54(e1301) background, 25 °C for 24 h before collection; western blot
T1 sequence: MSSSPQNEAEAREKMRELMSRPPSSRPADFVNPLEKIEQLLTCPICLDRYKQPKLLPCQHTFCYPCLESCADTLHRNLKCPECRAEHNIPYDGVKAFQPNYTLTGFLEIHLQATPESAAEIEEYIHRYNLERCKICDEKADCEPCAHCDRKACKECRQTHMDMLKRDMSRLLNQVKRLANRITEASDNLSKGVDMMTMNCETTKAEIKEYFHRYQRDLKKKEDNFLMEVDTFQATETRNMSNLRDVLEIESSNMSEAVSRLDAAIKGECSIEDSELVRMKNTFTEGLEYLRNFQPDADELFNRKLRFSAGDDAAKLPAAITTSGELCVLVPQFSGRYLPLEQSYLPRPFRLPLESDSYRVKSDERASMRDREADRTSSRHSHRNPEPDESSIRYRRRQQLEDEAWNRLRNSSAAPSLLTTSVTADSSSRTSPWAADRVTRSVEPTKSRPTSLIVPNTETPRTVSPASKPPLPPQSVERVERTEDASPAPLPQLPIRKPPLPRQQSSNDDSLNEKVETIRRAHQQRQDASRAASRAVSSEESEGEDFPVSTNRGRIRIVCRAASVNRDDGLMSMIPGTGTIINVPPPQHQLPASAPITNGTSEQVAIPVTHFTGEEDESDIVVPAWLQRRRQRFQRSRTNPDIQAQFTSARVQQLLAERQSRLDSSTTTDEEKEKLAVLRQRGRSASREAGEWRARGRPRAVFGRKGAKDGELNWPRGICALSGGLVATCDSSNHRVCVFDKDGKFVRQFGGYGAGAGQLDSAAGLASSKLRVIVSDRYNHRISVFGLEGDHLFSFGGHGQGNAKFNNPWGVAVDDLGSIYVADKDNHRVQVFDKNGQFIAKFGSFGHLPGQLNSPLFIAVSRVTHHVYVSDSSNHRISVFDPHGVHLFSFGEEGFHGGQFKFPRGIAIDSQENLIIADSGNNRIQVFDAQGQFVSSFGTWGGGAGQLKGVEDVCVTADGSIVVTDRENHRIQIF

[2] = target: T2, UNC-45 (endogenous) (C. elegans) (UniProt G5EG62); experiment: co-IP; UNC-45 antibody, from worm lysates (transgenic worms with FLAG-NHL-1 and HA-F40A3.6; unc-45 mutants), done as the FLAG co-immunoprecipitation; western blot
T2 sequence: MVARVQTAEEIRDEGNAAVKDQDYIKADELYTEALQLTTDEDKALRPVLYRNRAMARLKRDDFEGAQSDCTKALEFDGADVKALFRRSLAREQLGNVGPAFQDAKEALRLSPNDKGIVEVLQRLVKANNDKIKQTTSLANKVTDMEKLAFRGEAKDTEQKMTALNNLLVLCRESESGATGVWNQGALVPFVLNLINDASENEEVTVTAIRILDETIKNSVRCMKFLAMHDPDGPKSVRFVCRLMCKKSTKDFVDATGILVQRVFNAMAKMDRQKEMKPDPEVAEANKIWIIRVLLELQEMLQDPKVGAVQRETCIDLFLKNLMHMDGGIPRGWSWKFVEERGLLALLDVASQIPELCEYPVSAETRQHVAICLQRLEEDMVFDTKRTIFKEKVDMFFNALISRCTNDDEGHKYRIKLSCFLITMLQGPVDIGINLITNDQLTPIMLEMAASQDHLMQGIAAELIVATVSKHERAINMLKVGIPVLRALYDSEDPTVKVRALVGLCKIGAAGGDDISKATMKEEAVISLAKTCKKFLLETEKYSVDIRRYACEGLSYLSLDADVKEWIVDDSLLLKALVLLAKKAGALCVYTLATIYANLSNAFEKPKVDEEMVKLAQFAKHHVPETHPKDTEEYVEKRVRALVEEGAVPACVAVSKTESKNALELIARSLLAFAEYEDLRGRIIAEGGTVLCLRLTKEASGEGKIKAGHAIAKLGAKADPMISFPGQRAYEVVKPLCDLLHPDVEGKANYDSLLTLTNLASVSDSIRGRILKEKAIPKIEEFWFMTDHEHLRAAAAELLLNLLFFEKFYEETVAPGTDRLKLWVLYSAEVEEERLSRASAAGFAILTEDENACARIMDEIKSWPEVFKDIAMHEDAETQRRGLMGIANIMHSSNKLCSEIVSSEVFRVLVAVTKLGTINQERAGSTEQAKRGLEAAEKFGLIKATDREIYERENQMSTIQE

[3] = target: T3, UNC-45(b131, p.G427E) (endogenous) (C. elegans) (UniProt G5EG62); experiment: as above
T3 sequence: T2 sequence with G427E

[4] = target: UNC-54 (myosin heavy chain B, MHC B) (C. elegans) (UniProt P02566); experiment: co-IP; UNC-54/MHC B antibody, from lysates of transgenic worms with FLAG-NHL-1 and HA-F40A3.6, done as the FLAG co-immunoprecipitation; western blot

binding [1]: binds
binding [2]: binds
binding [3]: binds
Molecule: UNC-54 (myosin heavy chain B, MHC B) (from UniProt P02566 1-1963)

binding [4]: binds
binding [2]: binds
B1: FLAG-NHL-1 (protein, UniProt Q03601 1-974)
chain: T1 sequence
